Results as given in patent publication US10196357B2, “Biaryl compositions and methods for modulating a kinase cascade” (Athenex, Inc., priority 2007, dated 2019).
For at least one compound, name, drawing or mass did not settle the structure.

Columns and labels:
Format in all cases: cell-based
[1] = system: osteoclast precursors derived from spleen cells; assay: osteoclast formation from spleen cells; details: 5 days, RANKL and M-CSF, vs untreated control
Experimental: To determine the effect of the compounds on osteoclast formation, the compounds were added to osteoclast precursors derived from spleen cells. For the generation of spleen-derived osteoclasts, spleen cells comprising osteoclast precursors were treated with Rapamycin, KX1-141, KX2-328 (AstraZeneca compound), or KX1-329 for 5 days in the presence of receptor activator of nuclear factor-xB ligand (RANKL) and macrophage colony-stimulating factor (M-CSF). In in vitro murine or human osteoclast models, soluble RANKL enables osteoclast precursors to differentiate in the presence of M-CSF (Quinn, et al.; 1998, Endocrinology, 139, 4424-4427; Jimi, et al.; 1999, J. Immunol., 163, 434-442). The untreated control cells were incubated in the presence of RANKL and M-CSF alone. Rapamycin was used as a positive control for the inhibition of osteoclast formation.
For generating spleen-derived osteoclasts, spleen cells were treated as described above. […] Cells were then stained with the osteoclast marker, tartrate-resistant acid phosphatase (TRAP) to visualize differentiated cells. The numbers of TRAP-positive osteoclasts were counted.

[2] = system: osteoclasts on bone slices; assay: osteoclast formation on bone slices; details: vs untreated control
Experimental: To determine the effects of the compounds on osteoclast formation on bone slices, the bone slices were treated with Rapamycin, KX1-141, KX2-328, or KX1-329. […] The number of osteoclasts on the bone slices were counted.
Bone slices were treated as indicated above. […] The bone slices were then stained with TRAP.

[3] = system: resorption pits on bone slices; assay: resorption pit formation on bone slices; details: vs untreated control
Experimental: During the resorption of bone, osteoclasts form resorption pits. To determine the effects of the compounds on resorption pit formation on bone slices, the bone slices were treated with Rapamycin, KX1-141, KX2-328, or KX1-329, as described above. […] The number of resorption pits on the bone slices was determined.
Bone slices were treated as indicated above. […] The bone slices were stained with Toluidine Blue to reveal resorption pits, which are indicators of osteoclast-mediated resorption of bone.

osteoclasts = assay: osteoclast survival; details: 48 hours, RANKL and M-CSF, vs untreated control
Experimental: To determine the effect of the compounds on osteoclast survival, osteoclasts were treated with Rapamycin, KX1-141, KX2-328, or KX1-329 for 48 hours in the presence of RANKL and M-CSF. The untreated, control cells were incubated in the presence of RANKL and M-CSF alone. Rapamycin was used as a positive control for the inhibition of osteoclast survival.
As described above, osteoclasts were treated with Rapamycin, KX1-141, KX2-328, or KX1-329 for 48 hours in the presence of RANKL and M-CSF. […] Cells were then stained with TRAP and the number of TRAP-positive osteoclasts were counted.

CO[C@H]1C[C@@H]2CC[C@@H](C)[C@@](O)(O2)C(=O)C(=O)N2CCCC[C@H]2C(=O)O[C@H]([C@H](C)C[C@@H]2CC[C@@H](O)[C@H](OC)C2)CC(=O)[C@H](C)/C=C(\C)[C@@H](O)[C@@H](OC)C(=O)[C@H](C)C[C@H](C)/C=C/C=C/C=C/1C [Rapamycin, reference compound]
reduced: number of TRAP-positive osteoclasts (formation) [1] | number of osteoclasts on the bone slices ([2]; FIG. 20A) | number of TRAP-positive osteoclasts on the bone slices ([2]; FIG. 21A) | number of resorption pits on the bone slices ([3]; FIG. 20B) | number of resorption pits on the bone slices (Toluidine Blue) ([3]; FIG. 21B) | number of TRAP-positive osteoclasts (survival) (osteoclasts)
inhibited: formation of osteoclasts (staining) [1] | survival of osteoclasts (staining) (osteoclasts)
